The list shows a part of the results, in another mix than the full data.
Target: furin, P09958
Assay: furin cleavage Z-score vs untreated control; higher = more cleavage, active = 3.5 or more, inactive = 1 or less, 8 variable residues between constant flanks
Summary of the method: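 Cleavage by purified furin was measured on 8-mer peptides fused to a cDNA oligonucleotide and held on magnetic beads by their N-terminus. Reactions (0.01 ml, 1:10 enzyme:substrate) ran 7.5, 15 or 30 min in 50 mM HEPES pH 7.5 with CaCl2 and NaCl. Released DNA was adapter-tagged by PCR and sequenced, with read counts giving abundance. Log counts versus furin-free reactions were lowess-adjusted and scaled by median absolute deviation to give the cleavage Z-score.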

By UniProt entry, the sequences of proteins in these tests, tags left out.
furin, P09958, UniProt P09958, whole entry: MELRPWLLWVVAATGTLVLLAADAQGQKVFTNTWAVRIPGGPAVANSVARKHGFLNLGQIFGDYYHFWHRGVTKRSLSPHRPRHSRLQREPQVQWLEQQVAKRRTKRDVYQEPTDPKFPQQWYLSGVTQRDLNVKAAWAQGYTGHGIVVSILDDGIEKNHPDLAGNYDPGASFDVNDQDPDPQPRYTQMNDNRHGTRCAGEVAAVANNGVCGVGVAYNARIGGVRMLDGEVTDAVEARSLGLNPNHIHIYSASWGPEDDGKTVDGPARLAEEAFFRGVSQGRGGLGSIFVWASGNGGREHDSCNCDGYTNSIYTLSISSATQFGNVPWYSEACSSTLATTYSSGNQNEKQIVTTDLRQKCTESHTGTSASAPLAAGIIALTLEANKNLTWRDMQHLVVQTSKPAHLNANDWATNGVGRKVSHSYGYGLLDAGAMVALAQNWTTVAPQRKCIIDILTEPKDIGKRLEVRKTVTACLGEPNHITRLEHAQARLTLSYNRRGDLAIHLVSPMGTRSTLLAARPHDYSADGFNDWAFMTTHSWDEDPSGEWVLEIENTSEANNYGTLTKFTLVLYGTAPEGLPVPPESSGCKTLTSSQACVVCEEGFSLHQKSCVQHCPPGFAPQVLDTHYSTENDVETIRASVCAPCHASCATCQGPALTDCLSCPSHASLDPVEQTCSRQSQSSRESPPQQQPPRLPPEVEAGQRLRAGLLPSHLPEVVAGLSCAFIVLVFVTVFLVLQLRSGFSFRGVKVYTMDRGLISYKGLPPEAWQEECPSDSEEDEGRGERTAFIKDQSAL

With CALRKSRRFAAGNASASA [HC1298] the “furin cleavage Z-score” value (7.5 min) was 1.4, the “furin cleavage Z-score” value (15 min) was 1.75 and the “furin cleavage Z-score” value (30 min) was 2.1.

For CAVVCCNMSYAGNASASA [HC118], the “furin cleavage Z-score” value (7.5 min) was 2.3, the “furin cleavage Z-score” value (15 min) was 2.6 and the “furin cleavage Z-score” value (30 min) was 2.15.

For CARPPRGFQPAGNASASA [FS-3019], the “furin cleavage Z-score” value (7.5 min) was inactive: -1.18, the “furin cleavage Z-score” value (15 min) was inactive: -0.836 and the “furin cleavage Z-score” value (30 min) was inactive: -0.248.

In the case of CATNVVFKRDAGNASASA [FS-569], the “furin cleavage Z-score” value (7.5 min) is reported as 3.1, the “furin cleavage Z-score” value (15 min) is reported as 1.24 and the “furin cleavage Z-score” value (30 min) is reported as 2.9.

For CAKSPRRTRSAGNASASA [FS-1351], the “furin cleavage Z-score” value (7.5 min) was active: 5.21, the “furin cleavage Z-score” value (15 min) was active: 4.36 and the “furin cleavage Z-score” value (30 min) was 2.84.

With CAKPSRHQRTAGNASASA [FS-1460] the “furin cleavage Z-score” value (7.5 min) was 1.14, the “furin cleavage Z-score” value (15 min) was 2.1 and the “furin cleavage Z-score” value (30 min) was 2.3.

CAGGRRRRRTAGNASASA [FS-592] was tested, and the “furin cleavage Z-score” value (7.5 min) was 2.21, the “furin cleavage Z-score” value (15 min) was 1.63 and the “furin cleavage Z-score” value (30 min) was 1.74.

With CASTPCSAHWAGNASASA [HC2568] the “furin cleavage Z-score” value (7.5 min) was 2.09, the “furin cleavage Z-score” value (15 min) was 1.65 and the “furin cleavage Z-score” value (30 min) was 1.64.

In the case of CAQYFLTRVEAGNASASA [HC584], the “furin cleavage Z-score” value (7.5 min) is reported as inactive: -0.544, the “furin cleavage Z-score” value (15 min) is reported as inactive: -0.576 and the “furin cleavage Z-score” value (30 min) is reported as inactive: 0.581.

With CATESDIRTEAGNASASA [HC1485] the “furin cleavage Z-score” value (7.5 min) was inactive: -0.326, the “furin cleavage Z-score” value (15 min) was inactive: -0.524 and the “furin cleavage Z-score” value (30 min) was inactive: -0.55.

In the case of CARSARRKRKAGNASASA [FS-1610], the “furin cleavage Z-score” value (7.5 min) is reported as active: 9.41, the “furin cleavage Z-score” value (15 min) is reported as active: 11.4 and the “furin cleavage Z-score” value (30 min) is reported as active: 7.56.

In the case of CALSPYYKRYAGNASASA [HC576], the “furin cleavage Z-score” value (7.5 min) is reported as 1.15, the “furin cleavage Z-score” value (15 min) is reported as 1.65 and the “furin cleavage Z-score” value (30 min) is reported as 1.73.

In the case of CAGKSRRKRQAGNASASA [FS-1328], the “furin cleavage Z-score” value (7.5 min) is reported as active: 11.6, the “furin cleavage Z-score” value (15 min) is reported as active: 12.5 and the “furin cleavage Z-score” value (30 min) is reported as active: 8.34.

With CARQQREARGAGNASASA [FS-2760] the “furin cleavage Z-score” value (7.5 min) was 2.26, the “furin cleavage Z-score” value (15 min) was 2.04 and the “furin cleavage Z-score” value (30 min) was 2.68.

CALAALAAYCAGNASASA [HC994] was tested, and the “furin cleavage Z-score” value (7.5 min) was inactive: 0.554, the “furin cleavage Z-score” value (15 min) was 1.14 and the “furin cleavage Z-score” value (30 min) was inactive: 0.545.

CARRKRQVYGAGNASASA [FS-3204] was tested, and the “furin cleavage Z-score” value (7.5 min) was active: 6.12, the “furin cleavage Z-score” value (15 min) was active: 7.43 and the “furin cleavage Z-score” value (30 min) was active: 7.08.

In the case of CAKTRRSVDGAGNASASA [FS-2248], the “furin cleavage Z-score” value (7.5 min) is reported as active: 6.46, the “furin cleavage Z-score” value (15 min) is reported as active: 7.09 and the “furin cleavage Z-score” value (30 min) is reported as active: 5.86.

In the case of CADAELIEANAGNASASA [HC1272], the “furin cleavage Z-score” value (7.5 min) is reported as 1.56, the “furin cleavage Z-score” value (15 min) is reported as 1.04 and the “furin cleavage Z-score” value (30 min) is reported as inactive: 0.698.

With CARSKKAVDWAGNASASA [FS-2378] the “furin cleavage Z-score” value (7.5 min) was 2.03, the “furin cleavage Z-score” value (15 min) was 1.69 and the “furin cleavage Z-score” value (30 min) was 2.98.

For CALRRRCQRDAGNASASA [FS-459], the “furin cleavage Z-score” value (7.5 min) was active: 9.61, the “furin cleavage Z-score” value (15 min) was active: 9.12 and the “furin cleavage Z-score” value (30 min) was active: 7.39.

For CADQKRSLESAGNASASA [FS-2246], the “furin cleavage Z-score” value (7.5 min) was inactive: -0.764, the “furin cleavage Z-score” value (15 min) was inactive: -1.16 and the “furin cleavage Z-score” value (30 min) was inactive: -0.0942.

For CAFSSRWGRGAGNASASA [FS-1523], the “furin cleavage Z-score” value (7.5 min) was inactive: -2.35, the “furin cleavage Z-score” value (15 min) was inactive: 0.914 and the “furin cleavage Z-score” value (30 min) was inactive: -0.211.

For CARSKRQEGVAGNASASA [FS-1972], the “furin cleavage Z-score” value (7.5 min) was 1.79, the “furin cleavage Z-score” value (15 min) was 2.77 and the “furin cleavage Z-score” value (30 min) was 2.39.

In the case of CARQIRTVIQAGNASASA [FS-2748], the “furin cleavage Z-score” value (7.5 min) is reported as 1.04, the “furin cleavage Z-score” value (15 min) is reported as 1.82 and the “furin cleavage Z-score” value (30 min) is reported as 1.22.

In the case of CAQLSRAGRSAGNASASA [FS-81], the “furin cleavage Z-score” value (7.5 min) is reported as active: 6.21, the “furin cleavage Z-score” value (15 min) is reported as active: 8.4 and the “furin cleavage Z-score” value (30 min) is reported as active: 8.08.

In the case of CAHERRMKRFAGNASASA [FS-791], the “furin cleavage Z-score” value (7.5 min) is reported as active: 10, the “furin cleavage Z-score” value (15 min) is reported as active: 11.5 and the “furin cleavage Z-score” value (30 min) is reported as active: 9.74.

With CARQRRSELGAGNASASA [FS-1917] the “furin cleavage Z-score” value (7.5 min) was 2.3, the “furin cleavage Z-score” value (15 min) was 2.46 and the “furin cleavage Z-score” value (30 min) was 2.2.

In the case of CARRQRLHRFAGNASASA [FS-919], the “furin cleavage Z-score” value (7.5 min) is reported as 2.12, the “furin cleavage Z-score” value (15 min) is reported as 2.12 and the “furin cleavage Z-score” value (30 min) is reported as 3.3.

For CAMWSGTFPIAGNASASA [HC1188], the “furin cleavage Z-score” value (7.5 min) was 1.39, the “furin cleavage Z-score” value (15 min) was 1.22 and the “furin cleavage Z-score” value (30 min) was 1.33.

In the case of CANFSRCKRGAGNASASA [FS-553], the “furin cleavage Z-score” value (7.5 min) is reported as 2.22, the “furin cleavage Z-score” value (15 min) is reported as 2.06 and the “furin cleavage Z-score” value (30 min) is reported as 2.15.

In the case of CASSGCPERLAGNASASA [HC385], the “furin cleavage Z-score” value (7.5 min) is reported as inactive: -0.122, the “furin cleavage Z-score” value (15 min) is reported as inactive: -0.598 and the “furin cleavage Z-score” value (30 min) is reported as inactive: 0.353.

In the case of CAQKPRNKKSAGNASASA [FS-1151], the “furin cleavage Z-score” value (7.5 min) is reported as 1.11, the “furin cleavage Z-score” value (15 min) is reported as 2.12 and the “furin cleavage Z-score” value (30 min) is reported as 1.96.

CAKKMRNKRNAGNASASA [FS-42] was tested, and the “furin cleavage Z-score” value (7.5 min) was active: 10.5, the “furin cleavage Z-score” value (15 min) was active: 10.9 and the “furin cleavage Z-score” value (30 min) was active: 9.3.

With CAEVPCHRRSAGNASASA [HC2393] the “furin cleavage Z-score” value (7.5 min) was 1.85, the “furin cleavage Z-score” value (15 min) was 1.7 and the “furin cleavage Z-score” value (30 min) was 1.09.

For CARVPRSVPRAGNASASA [FS-2103], the “furin cleavage Z-score” value (7.5 min) was 2.17, the “furin cleavage Z-score” value (15 min) was 2.66 and the “furin cleavage Z-score” value (30 min) was 3.13.

For CALLFNILGGAGNASASA [HC1064], the “furin cleavage Z-score” value (7.5 min) was inactive: -0.771, the “furin cleavage Z-score” value (15 min) was inactive: -1.63 and the “furin cleavage Z-score” value (30 min) was inactive: -1.52.

CATKLLLAVFAGNASASA [HC605] was tested, and the “furin cleavage Z-score” value (7.5 min) was 1.92, the “furin cleavage Z-score” value (15 min) was 3.24 and the “furin cleavage Z-score” value (30 min) was inactive: 0.635.

For CAEVPCHRPRAGNASASA [HC2413], the “furin cleavage Z-score” value (7.5 min) was 2.06, the “furin cleavage Z-score” value (15 min) was 1.28 and the “furin cleavage Z-score” value (30 min) was 1.44.

Source: the supplement of paper PMC3545927
